# From PubChem BioAssay AID2417 (National Center for Advancing Translational Sciences (NCATS), 2010)
# The campaign covered roughly 140,000 compounds. About 4,300 (3.1%) were called active. The shares of active, inactive and inconclusive entries below differ from those in the screen.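 How the source made its calls: active means readout at or below -70, meaning at least 70% loss of cells showing the perinucleolar compartment, a nuclear body marking cancer cells; inconclusive means readout between -30 and a set limit; inactive means the rest.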
# Experiment: High Content Assay for Compounds that inhibit the Assembly of the Perinucleolar Compartment;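 further: plate controls were DMSO wells for no effect and camptothecin positive control wells for full effect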
# Settings: PC3M PTB-GFP, PNC prevalence imaging, 16 h; at 10 µM; active compounds read low
# Summary of the method: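 Read-out is percentage of cells bearing a perinucleolar compartment, from automated 20x imaging of fixed, Hoechst-stained PC3M PTB-GFP cells. Cells were seeded 4 h, then exposed 16 h to compound (23 nl of library stock) in duplicate plates.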
row,SMILES,"activity change (PNC), negative = inhibition"
1,Cc1ccc(OCC(O)Cn2c(N3CCOCC3)nc3c2c(=O)[nH]c(=O)n3C)cc1 (centres undefined),active: -94%
2,COc1ccc(CCNC(=O)C(=O)NCC2OCCN2S(=O)(=O)c2ccc(Br)cc2)cc1 (centres undefined),inconclusive: -75.8%
3,COc1cc(NS(=O)(=O)c2ccc(NC(=O)COc3ccc(C)cc3C)cc2)nc(OC)n1,inconclusive: -47.3%
4,COc1cc2nc(N3CCNCC3)nc(N)c2cc1OC,inconclusive: -53.3%
5,O=C1CCC(=O)N1c1nc2n(n1)C(c1ccccc1)C=C(c1ccc(Br)cc1)N2 (centres undefined),inactive: -27.9%
6,O=C(Nc1c(C(=O)Nc2cccc(F)c2)oc2ccccc12)c1ccc2c(c1)OCO2,inactive: 43.3%
7,CCCc1nc(SCC(=O)Nc2ccc(N3CCOCC3)cc2)c2ccccc2n1,inconclusive: -49.4%
8,Cc1cc(C)c(C(=O)OCCNC(=O)c2cccnc2)cc1C,inconclusive: -38.1%
9,Cc1ccc(C(=O)NCC2CCCO2)o1 (centres undefined),inconclusive: -39.5%
10,COc1ccc(NC(=O)CSc2nnc(-c3ccccc3C)n2C)cc1,inconclusive: -55.7%
11,Clc1ccccc1OCc1nc(-c2ccc(Br)o2)no1,inconclusive: -68.7%
12,CC(/C=N/NC(=O)CSc1ccccn1)=C\c1ccc(C(C)C)cc1,inactive: 5.93%
13,COc1ccc(CCC(=O)OCC(=O)Nc2ccc(C)c(S(=O)(=O)N(C)C)c2)cc1,inactive: 34.8%
14,COc1ccc(N2CCN(c3oc(-c4ccccc4OC)nc3C#N)CC2)cc1,inconclusive: -34.3%
15,O=C(CCCNC(=O)/C(=C/c1ccc(F)cc1)NC(=O)c1ccccc1)OCc1ccccc1,inactive: 25.9%
16,Nc1cc(-c2nc3ncccc3o2)ccc1Cl,inconclusive: -41.4%
17,Cc1cc(C)c(OCC(=O)Nc2nnn(C)n2)c(Br)c1,active: -100%
18,C/C(=N\NC(=O)Cc1cccn1C)c1cccc2ccccc12,inconclusive: -38.8%
19,CC(C)NC(=O)CSc1nc(N)c(NC(=O)c2ccccc2F)c(=O)[nH]1,active: -91.4%
20,COCCNc1oc(COc2cccc(C)c2)nc1C#N,inconclusive: -30.9%
21,N#CCOc1ccc(C2=NO[C@@H]3[C@@H]4C[C@@H]([C@H]5C(=O)N(c6ccc7c(c6)OCO7)C(=O)[C@@H]45)[C@H]23)cc1,active: -91.1%
22,Cc1occc1C(=O)N1CCN(c2ccc(Cl)c(Cl)c2)CC1,inactive: 37.2%

row,SMILES,"activity change (PNC), negative = inhibition"
1,CC(c1ccccc1)n1cc(C(=O)NCCN2CCOCC2)nn1 (centres undefined),inactive: -15.4%
2,Cn1c(=O)c2c(ncn2CC(=O)N/N=C/c2ccc(Br)s2)n(C)c1=O,inconclusive: -32.9%
3,COc1ccc(CNC(=O)CCCn2c(SCC#N)nc3cc4c(cc3c2=O)OCO4)cc1,inactive: -21.2%
4,C=CC[n+]1c(-c2ccc(OC)c(OC)c2)csc1NNC(=O)Nc1ccccc1,inconclusive: -33.3%
5,O=C(Nc1ccccc1C(F)(F)F)N1CCN(c2ccc3nncn3n2)CC1,inconclusive: -31.9%
6,N=c1n(CC(=O)c2ccc([N+](=O)[O-])cc2)c2ccccc2n1Cc1ccc(Cl)cc1,inconclusive: -33.1%
7,CCOc1cc(C)c(C(C)C)cc1S(=O)(=O)NCc1ccccn1,active: -81.6%
8,CCOC(=O)C1CCCN(Cc2sccc2C)C1 (centres undefined),inactive: -12%
9,O=C(NCc1ccco1)c1cccc(S(=O)(=O)N2CCc3ccccc32)c1,inconclusive: -50.1%
10,O=C1CC(N2CCN(c3nc4ccccc4s3)CC2)C(=O)N1c1cccc(F)c1 (centres undefined),inconclusive: -58.4%
11,O=C(NCc1ccco1)c1cc(-c2ccccc2)nc2ccccc12,inactive: -4.09%
12,N#CC1=C(N)SC(N)=C(C#N)C1CCC1CCCCC1,inactive: -27.8%
13,Cc1nnc(NC2=NCCC2)o1,inconclusive: -33.9%
14,Cc1cc(C)nc(SCC(=O)Nc2ncc(Cc3cccc(Cl)c3Cl)s2)n1,inconclusive: -42.4%
15,CCC1C/C(=C/c2ccco2)C(=O)/C(=C/c2ccco2)C1 (centres undefined),active: -119%
16,Cc1ccccc1NS(=O)(=O)c1cc(C(=O)N2CCc3ccccc3C2)ccc1C,inconclusive: -32.8%
17,CS(=O)(=O)N(CC(=O)NCc1ccc2c(c1)OCO2)c1ccccc1,inconclusive: -68.6%
18,O=C1CN(C(=O)COC(=O)COc2ccc3c(c2)CCC3)c2ccccc2N1,inactive: -8.2%
19,CC(=O)C1=C(c2ccc(Br)cc2)C(=O)c2ccccc2C1=O,inconclusive: -71.6%
20,COc1ccc(C(=O)/C=C/N(C)C)cc1,active: -80.4%
21,c1ccc(Cn2c(SCc3cn4cccnc4n3)nnc2-c2ccco2)cc1,inconclusive: -50.2%
22,CCN(CC)S(=O)(=O)c1ccc2c(c1)nc(SCc1nc3ccsc3c(=O)[nH]1)n2CC,inconclusive: -45.5%

# Looked up by structure from above (3):
row,SMILES,"activity change (PNC), negative = inhibition"
2,Cn1c(=O)c2c(ncn2CC(=O)N/N=C/c2ccc(Br)s2)n(C)c1=O,inconclusive: -32.9%
6,N=c1n(CC(=O)c2ccc([N+](=O)[O-])cc2)c2ccccc2n1Cc1ccc(Cl)cc1,inconclusive: -33.1%
17,CS(=O)(=O)N(CC(=O)NCc1ccc2c(c1)OCO2)c1ccccc1,inconclusive: -68.6%
